# Measured values taken from article PMC2694982.
# Sequences of proteins named here, by UniProt entry; tags and fusion partners are left off. A change or cut given only in a name is not applied to a line headed by its entry.
# UniProt Q9LHA6: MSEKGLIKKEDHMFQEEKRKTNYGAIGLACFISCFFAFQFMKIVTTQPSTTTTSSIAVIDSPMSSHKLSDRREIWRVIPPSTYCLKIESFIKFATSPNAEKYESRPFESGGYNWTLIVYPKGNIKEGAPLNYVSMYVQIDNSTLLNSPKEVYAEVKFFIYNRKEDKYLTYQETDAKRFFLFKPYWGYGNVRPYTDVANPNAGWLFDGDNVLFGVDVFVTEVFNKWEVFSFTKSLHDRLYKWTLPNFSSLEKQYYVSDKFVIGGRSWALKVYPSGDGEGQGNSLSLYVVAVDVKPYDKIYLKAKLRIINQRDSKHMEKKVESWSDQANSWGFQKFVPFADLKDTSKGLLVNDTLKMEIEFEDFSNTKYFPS
# No constants are given. Whether binding was seen depends on the method and setting. Binding seen in cells or lysates may run through a third protein. These calls come from enrichment with a bait or labelling near it, and not all partners need be listed.
# B1: ERD4 (Early Responsive to Dehydration 4) (protein, UniProt Q9C8G5 1-724)
# chain: MEFGSFLVSLGTSFVIFVILMLLFTWLSRKSGNAPIYYPNRILKGLEPWEGTSLTRNPFAWMREALTSSEQDVVNLSGVDTAVHFVFLSTVLGIFACSSLLLLPTLLPLAATDNNIKNTKNATDTTSKGTFSQLDNLSMANITKKSSRLWAFLGAVYWISLVTYFFLWKAYKHVSSLRAQALMSADVKPEQFAILVRDMPAPPDGQTQKEFIDSYFREIYPETFYRSLVATENSKVNKIWEKLEGYKKKLARAEAILAATNNRPTNKTGFCGLVGKQVDSIEYYTELINESVAKLETEQKAVLAEKQQTAAVVFFTTRVAAASAAQSLHCQMVDKWTVTEAPEPRQLLWQNLNIKLFSRIIRQYFIYFFVAVTILFYMIPIAFVSAITTLKNLQRIIPFIKPVVEITAIRTVLESFLPQIALIVFLAMLPKLLLFLSKAEGIPSQSHAIRAASGKYFYFSVFNVFIGVTLAGTLFNTVKDIAKNPKLDMIINLLATSLPKSATFFLTYVALKFFIGYGLELSRIIPLIIFHLKKKYLCKTEAEVKEAWYPGDLSYATRVPGDMLILTITFCYSVIAPLILIFGITYFGLGWLVLRNQALKVYVPSYESYGRMWPHIHQRILAALFLFQVVMFGYLGAKTFFYTALVIPLIITSLIFGYVCRQKFYGGFEHTALEVACRELKQSPDLEEIFRAYIPHSLSSHKPEEHEFKGAMSRYQDFNAIAGV
# B2: Remorin (At3g61260) (protein, UniProt Q9M2D8 1-212)
# chain: MAEEQKIALESESPAKVTTPAPADTPAPAPAEIPAPAPAPTPADVTKDVAEEKIQNPPPEQIFDDSKALTVVEKPVEEPAPAKPASASLDRDVKLADLSKEKRLSFVRAWEESEKSKAENKAEKKIADVHAWENSKKAAVEAQLKKIEEQLEKKKAEYAERMKNKVAAIHKEAEERRAMIEAKRGEDVLKAEETAAKYRATGIVPKATCGCF
# B3: Jacalin domain protein (At1g52000) (protein, UniProt Q9ZU23 1-730)
# chain: MSWDDGKHTKVKRVQLTFDDVIRSIEVEYDGTSLKSQPRGTAGTKIDGFTLSSDEYITEVNGYYKTTFSGEVITSLTFKTNKRTYGTYGNKTSSYFSVAAPKDNQIVGFLGSSSHALNSIDAHFAPAPPPGSTGAKPGASGIGSDSGSIGSAGTNPGADGTRETEKNAGGSKPSSGSAGTNPGASAVGNGETEKNAGGSKPSSGSAGTNPGASAGGNGETEKNVGGSKPSSGKAGTNPGANAGGNGGTEKNAGGSKSSSGSARTNPGASAGGNGETVSNIGDTESNAGGSKSNDGANNGASGIESNAGSTGTNFGAGGTGGIGDTESDAGGSKTNSGNGGTNDGASGIGSNDGSTGTNPGAGGGTDSNIEGTENNVGGKETNPGASGIGNSDGSTGTSPEGTESNADGTKTNTGGKESNTGSESNTNSSPQKLEAQGGNGGNQWDDGTDHDGVMKIHVAVGGLGIEQIRFDYVKNGQLKEGPFHGVKGRGGTSTIEISHPDEYLVSVEGLYDSSNIIQGIQFQSNKHTSQYFGYEYYGDGTQFSLQVNEKKIIGFHGFADSHLNSLGAYFVPISSSSSSLTPPPNKVKAQGGSYGETFDDGAFDHVRKVYVGQGDSGVAYVKFDYEKDGKKETQEHGKMTLSGTEEFEVDSDDYITSMEVYVDKVYGYKSEIVIALTFKTFKGETSPRFGIETENKYEVKDGKGGKLAGFHGKASDVLYAIGAYFIPAAN
# B4: Jacalin domain protein (At3g16420) (protein, UniProt O04314 1-298)
# chain: MAQKVEAQGGKGANLWDDGSTHDAVTKIQLAAGIDGIQYVQFDYVKNGQPEQAPLRGTKGRVLPADPFVINHPDEHLVSVEGWYSPEGIIQGIKFISNKKTSDVIGSDEGTHFTLQVKDKKIIGFHGSAGGNLNSLGAYFAPLTTTTPLTPAKQLTAFGSDDGTVWDDGAYVGVKKVYVGQAQDGISAVKFVYDKSPEEVTGEEHGKSTLLGFEEFVLDYPSEYITAVDGTYDKIFGSDGSVITMLRFKTNKQTSPPFGLEAGTVFELKEEGHKIVGFHGRADVLLHKIGVHVRPLSN
# Biological target: T1, RIN4 (Arabidopsis thaliana (endogenous in leaves)) (UniProt Q8GYN5)
# T1 sequence: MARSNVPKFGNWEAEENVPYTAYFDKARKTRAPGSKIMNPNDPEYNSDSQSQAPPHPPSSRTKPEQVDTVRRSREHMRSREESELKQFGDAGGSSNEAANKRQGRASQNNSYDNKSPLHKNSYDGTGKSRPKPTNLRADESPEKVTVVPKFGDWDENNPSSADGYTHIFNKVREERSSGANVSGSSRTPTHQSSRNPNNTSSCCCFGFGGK
# Test: affinity purification with mass spectrometry; affinity-purified anti-RIN4 antibody coupled to Protein A beads, whole leaf extract in 50 mM HEPES, 50 mM NaCl, 10 mM EDTA, 0.2% Triton X-100, pH 7.5, 3 h at 4°C; washes with 50 mM and 150 mM NaCl; elution at pH 2.5; LC-MS/MS; three biological …; negative control rps2-101c/rin4
row,Molecule,binding
1,MATH domain protein (At3g28220) (from UniProt Q9LHA6),binds
2,B1,binds
3,B2,binds
4,B3,binds
5,B4,binds
